Experimental data reported in US20060084672A1, “Method for modification of y-secretase activity through inhibition of Fkbp13” (The Hospital for Sick Children, priority 2004, published 2006).
For at least one compound, name, drawing or mass did not settle the structure.

Tested on: Psn
Experiment: Effect of drug treatment on Psn levels in HEK293 cells transfected with Fkbp13 and Psn (Western blot)
Type: cell-based, Drosophila
Conditions: treated for 1-24 hours, vs DMSO

## C=CC[C@@H]1/C=C(\C)C[C@H](C)C[C@H](OC)[C@H]2O[C@@](O)(C(=O)C(=O)N3CCCC[C@H]3C(=O)O[C@H](/C(C)=C/[C@@H]3CC[C@@H](O)[C@H](OC)C3)[C@H](C)[C@@H](O)CC1=O)[C@H](C)C[C@@H]2OC [FK506]
  levels of Psn: dose-dependent decrease
